Measurements reported in PubChem BioAssay AID1053208 (Peter MacCallum Cancer Centre, 2014).

Aim: 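Genes whose silencing cuts survival of bone tumour cells only with doxorubicin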 (primary screen)
Cell system: mouse osteosarcoma cells, early-passage culture from an engineered mouse model of fibroblastic bone tumour
Knock-down reagent: siRNA pool against mouse genes, 40 nM
Time to read-out: about 120 h (48 h before drug, then 72 h with drug)
Challenge: doxorubicin 100 nM for 72 h, roughly 30-40% inhibitory dose
Detection: 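Viability read as ATP luminescence after 72 h of 100 nM doxorubicin or none, duplicate wells averaged, scaled to non-targeting siRNA, then expressed as robust z-scores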
Scale: viability z-score with doxorubicin: higher = more viable cells under doxorubicin; viability z-score without drug: higher = more viable cells with knock-down alone
Hit rule: 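a pool counts as active when its viability z-score with doxorubicin is -2 or below and its z-score without drug lies between -2 and 2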
In all, the deposit lists about 17,000 reagents; below is a part drawn at random. In the full data, 788 (4.7%) got an active call. 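Calls rest on z-score classes alone; an extra cut-off of viability at most 70% of control was not applied to them.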 Unmarked entries are inactive. Not all columns of the deposit are shown.

Krt17 (keratin 17)
- combined z-score class: no change with or without drug
- viability z-score with doxorubicin: -0.11
- viability z-score without drug: -1.52

Vps26a (VPS26 retromer complex component A)
- combined z-score class: no change with or without drug
- viability z-score with doxorubicin: -0.45
- viability z-score without drug: 0.84

Tdpoz3 (TD and POZ domain containing 3)
- combined z-score class: no change with or without drug
- viability z-score with doxorubicin: -1.91
- viability z-score without drug: -1.52

Inpp5d (inositol polyphosphate-5-phosphatase D)
- combined z-score class: no change with or without drug
- viability z-score with doxorubicin: 0.45
- viability z-score without drug: 0.84

Adig (adipogenin)
- combined z-score class: no change with or without drug
- viability z-score with doxorubicin: 0.34
- viability z-score without drug: 0.51

Plin1 (perilipin 1)
- combined z-score class: no change with or without drug
- viability z-score with doxorubicin: -1.12
- viability z-score without drug: 0

Next part (2 carried over from the part before).
Adig (adipogenin)
- combined z-score class: no change with or without drug
- viability z-score with doxorubicin: 0.34
- viability z-score without drug: 0.51

Plin1 (perilipin 1)
- combined z-score class: no change with or without drug
- viability z-score with doxorubicin: -1.12
- viability z-score without drug: 0

6720467O09RIK
- combined z-score class: no change with or without drug
- viability z-score with doxorubicin: 0.22
- viability z-score without drug: -0.17

Lrrc4b (leucine rich repeat containing 4B)
- combined z-score class: no change with or without drug
- viability z-score with doxorubicin: 0.22
- viability z-score without drug: -0.84

Ctsf (cathepsin F)
- combined z-score class: no change with or without drug
- viability z-score with doxorubicin: 0
- viability z-score without drug: -1.52

Ccl19 (C-C motif chemokine ligand 19)
- combined z-score class: no change with or without drug
- viability z-score with doxorubicin: 0.22
- viability z-score without drug: 0.17

Itfg2 (integrin alpha FG-GAP repeat containing 2)
- combined z-score class: no change with or without drug
- viability z-score with doxorubicin: 0.45
- viability z-score without drug: -0.17

Trappc5 (trafficking protein particle complex 5)
- combined z-score class: no change with or without drug
- viability z-score with doxorubicin: 0
- viability z-score without drug: 0

Vps37d (vacuolar protein sorting 37D)
- combined z-score class: high cell count without drug only
- viability z-score with doxorubicin: 0.9
- viability z-score without drug: 2.19

Ankrd16 (ankyrin repeat domain 16)
- combined z-score class: no change with or without drug
- viability z-score with doxorubicin: -0.67
- viability z-score without drug: -0.51

Apoa2 (apolipoprotein A-II)
- combined z-score class: no change with or without drug
- viability z-score with doxorubicin: -0.11
- viability z-score without drug: 0

Entpd5 (ectonucleoside triphosphate diphosphohydrolase 5)
- combined z-score class: no change with or without drug
- viability z-score with doxorubicin: 0
- viability z-score without drug: 0.84

H2-M11 (histocompatibility 2, M region locus 11)
- combined z-score class: no change with or without drug
- viability z-score with doxorubicin: 0.9
- viability z-score without drug: 0.17

Clip4 (CAP-GLY domain containing linker protein family, member 4)
- combined z-score class: no change with or without drug
- viability z-score with doxorubicin: -1.57
- viability z-score without drug: 1.85

4930524B15Rik (RIKEN cDNA 4930524B15 gene)
- combined z-score class: high cell count without drug only
- viability z-score with doxorubicin: -0.9
- viability z-score without drug: 2.02
